{"source": "paper PMC2583054", "binders": {"B1": {"name": "Myc-tagged Comm expressed pan-neuronally in Drosophila embryos (protein, UniProt Q24139 1-370)", "chain": "MISTTDYPTVETTTTAEELYAEYISAPASSMSPAAIAEHLQQNQITFEIPSAHDLRHIDALNSFNALLQRIGNAAVSYDPAPPSGWSPDGSISTEQLSKSVVLDLADLRDRSEESGESSWWSQIFGDADMHVIINYLWIGVVSSLVILSLVFILFSCYFYRKFRTWKKCNKDIRAQIHAASDSYSSHLVGCDASRLLLHQQMQHPHHRSSEAGFYQIESPPCYTIATGLPSYDEALHHQPRHFAYGMKFVYPSLAAVHHHHHCISNWEKQEPLNKLQKCKLSAAAAVEEDKADSSSSTSASASPSSSESSNLATATPAICINMPSGRQDEEVDNSDSDSAIAVAVAVAQSLQPAAPADDDCASLVVVVAA"}}, "target": "HA-tagged Robo expressed pan-neuronally in Drosophila embryos (Drosophila)", "assay": "co-IP; lysates of 0- to 15-hour Drosophila embryos pan-neuronally expressing Myc-tagged Comm and HA-tagged Robo or Robo^SD; lysis buffer 50 mM Tris-HCl pH 7.5, 150 mM NaCl, 1% NP40, 0.5% sodium deoxycholate; protein A-agarose, 4°C; text: IP anti-myc, blot anti-HA; legend: IP anti-HA, blot anti-Myc", "note": "These are yes or no findings as the source states them, for the method shown. Binding seen in cells or lysates may run through a third protein. A result given as binding can be weak or reduced; the word gives no strength. Sequences can lack the tags named with a protein."}
{"binder": "B1", "values": [{"measurement": "binding", "result": "binds"}]}
